{"source": "PubChem BioAssay AID504444", "about": "(National Center for Advancing Translational Sciences (NCATS), 2011)", "note": "Out of some 360,000 compounds screened, about 7,500 (2.1%) were called active. Inconclusive results, whose numbers are uncertain, are shown with a selection of clear calls. Calls come from the whole dose curve; as a rule, active = well fitted inhibition curve with a large enough effect; inconclusive = small, poorly fitted or top-dose-only effect, or effect the other way; inactive = flat fitted curve, though single readings scatter. Potencies beside an inconclusive call are fits to weak or partial responses and may not hold up. Potency is the fitted concentration of half-maximal effect."}
{"assay": "Nrf2 qHTS screen for inhibitors; note: nearly all actives have a fitted effect of over 60% in size", "details": "A549 ARE-Fluc reporter, luciferase luminescence, 18-24 h; series mostly up to 46 µM", "in_short": "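A549 ARE_Fluc cells (5000/well, 5% FBS OPTI-MEM) pre-incubated 2 h, then treated with compounds 18-24 h at 37C/5% CO2 in concentration-response. CellTiter-Fluor viability read first; BugLite luciferase luminescence after 15 min at room temperature gives Nrf2 activity.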"}
{"smiles": "Cc1ccc(-c2nc(-c3cccnc3)no2)cc1", "Potency": "inconclusive: 23.1 µM [activator, partial curve]"}
{"smiles": "O=C(c1cccc(Cl)c1Cl)N1CCN(c2ccccn2)CC1", "Potency": "inconclusive: 4.11 µM [falling, partial curve, poor fit]"}
{"smiles": "COc1ccccc1NC(=O)CN(C)S(=O)(=O)c1cccc2cccnc12", "Potency": "inconclusive: 1.16 µM [falling, partial curve, poor fit]"}
{"smiles": "O=C(CSc1ncc2c(n1)-c1ccccc1N(Cc1ccc(Cl)cc1)S2(=O)=O)c1ccc(Cl)cc1", "Potency": "inactive"}
{"smiles": "O=C(CCC(=O)N1CCCCC1)Nc1nnc(C2CCCCC2)s1", "Potency": "inconclusive: 29.1 µM [activator, single point]"}
{"smiles": "CCCCC(=O)NC(Nc1cc(C)ccn1)(C(=O)OCC)C(F)(F)F", "note": "(stereo not drawn)", "Potency": "inactive"}
{"smiles": "CCOc1ccc(NC(=O)c2ccc(NC(=O)c3ccc(CN4CCOCC4)cc3)cc2)cc1", "Potency": "inactive"}
{"smiles": "COc1cc2sc(-c3ccccc3OC)c(-c3ccc(OCCN4CCOCC4)cc3)c2cc1OC", "Potency": "inconclusive: 32.6 µM [falling, single point]"}
{"smiles": "O=C(COc1cccnc1[N+](=O)[O-])N1N=C(c2ccc(Cl)cc2)CC1c1ccco1", "note": "(stereo not drawn)", "Potency": "inconclusive: 23.1 µM [activator, single point]"}
{"smiles": "O=C(NCCNc1ccc([N+](=O)[O-])cc1)c1ccccc1Br", "Potency": "inconclusive: 32.6 µM [falling, single point]"}
{"smiles": "COc1cccc(N2CCN(C(=O)c3ccc(CS(=O)c4ccccc4Cl)o3)CC2)c1", "note": "(stereo not drawn)", "Potency": "inconclusive: 2.31 µM [activator, partial curve, poor fit]"}
{"smiles": "COc1cc2c(cc1OC)CN(C(=O)/C=C/c1cccs1)CC2", "Potency": "inactive"}
{"smiles": "O=C(Oc1ccc(Cl)cc1)N1CCCCC1", "Potency": "inconclusive: 5.8 µM [activator, full curve]"}
{"smiles": "CC1(O)c2ccccc2C(=O)N1CCc1ccccc1F", "note": "(stereo not drawn)", "Potency": "inconclusive: 11.6 µM [activator, partial curve, poor fit]"}
{"smiles": "Cc1ccc(S(=O)(=O)N(Cc2ccc([N+](=O)[O-])cc2)C(=O)N2CCN(C)CC2)cc1", "Potency": "inconclusive: 25.9 µM [activator, partial curve, poor fit]"}
{"smiles": "CCCCNc1c(-c2ccc(SC(C)CC)c(OC)c2)nc2ccc(Cl)cn12", "note": "(stereo not drawn)", "Potency": "inactive"}
{"smiles": "Cc1cc(SCC#N)n2nc(C)c(-c3ccc(Cl)cc3)c2n1", "Potency": "inconclusive: 14.6 µM [falling, partial curve, poor fit]"}
{"smiles": "CCOC(=O)c1ccccc1NC(=O)N(Cc1ccc(CC)cc1)Cc1cn[nH]c1-c1ccc(OC)cc1", "Potency": "inactive"}
{"smiles": "CC1CN(C(=O)CCC(=O)NCc2ccc(F)cc2)c2ccccc2S1", "note": "(stereo not drawn)", "Potency": "inconclusive: 5.8 µM [activator, partial curve, poor fit]"}
{"smiles": "COC(=O)N/N=C(\\C)c1ccc(-n2ccnc2)cc1", "Potency": "inactive"}
{"smiles": "O=C(Nc1ccc([N+](=O)[O-])cc1Cl)c1cc(Br)ccc1O", "Potency": "inconclusive: 13 µM [activator, partial curve]"}
{"smiles": "CN(C)c1ccc(-c2sc(Nc3ccccc3)n[n+]2-c2ccc(F)cc2)cc1", "Potency": "inactive"}
{"smiles": "O=[N+]([O-])c1ccc(O)c(-c2nc(-c3ccccc3)c(-c3cccs3)[nH]2)c1", "Potency": "active: 3.66 µM"}
{"smiles": "Cc1cccc(C)c1NC(=O)c1cccc2c1-c1ccccc1C2=O", "Potency": "inconclusive: 20.6 µM [activator, partial curve]"}
{"smiles": "CCC(C)(C)n1nnnc1CN(Cc1ccc(Cl)cc1)Cc1ccco1", "Potency": "inconclusive: 14.6 µM [falling, partial curve, poor fit]"}
{"smiles": "COc1ccc(/C=C/C(=O)c2ccc(OC)cc2OC)c(OC)c1", "Potency": "inconclusive: 29.1 µM [falling, single point]"}
{"smiles": "CCOC(=O)C1Nc2ccc(Br)cc2C2C=CCC12", "note": "(stereo not drawn)", "Potency": "inactive"}
{"smiles": "COc1ccccc1CN(C)C(=O)c1cccc(S(=O)(=O)N2CCCC2)c1", "Potency": "inactive"}
{"smiles": "Cc1ccc(CNC(=O)CN2Cc3ccccc3C2=O)cc1", "Potency": "inconclusive: 29.1 µM [activator, single point]"}
{"smiles": "O=C(Cn1ncc2c1-c1ccccc1OC2)Nc1cccc(Cl)c1", "Potency": "inconclusive: 29.1 µM [falling, partial curve, poor fit]"}
{"smiles": "CCOC(=O)c1ccc(NC(=O)CCc2nc(-c3cccc(C)c3)no2)cc1", "Potency": "inconclusive: 29.1 µM [falling, single point]"}
{"smiles": "Cc1ccccc1NC(=O)Cn1c(=O)n(CCC(=O)N2CCc3ccccc3C2)c(=O)c2ccccc21", "Potency": "inactive"}
{"smiles": "O=C(O)c1ccccc1-c1ccc(/C=C2\\SC(=O)N(c3ccccc3)C2=O)o1", "Potency": "inconclusive: 4.61 µM [activator, full curve]"}
{"smiles": "O=C(CSc1nc(C2CCCCC2)nc2ccccc12)N1CCCC1", "Potency": "inconclusive: 32.6 µM [falling, partial curve, poor fit]"}
{"smiles": "CCCN(CCC)Cc1c(C(=O)N/N=C/c2cccs2)nnn1-c1nonc1N", "Potency": "inactive"}
{"smiles": "CCN(CC)C(=O)COc1ccc(/C(C)=N/Nc2ncc(Cl)cc2Cl)cc1", "Potency": "inconclusive: 32.6 µM [falling, single point]"}
{"smiles": "O=C(COc1ccc(Cl)cc1Cl)Nc1ccccc1F", "Potency": "inconclusive: 4.11 µM [activator, partial curve]"}
{"smiles": "N#Cc1ccc(-c2ccc(OCC(=O)NCCc3ccccc3)cc2)cc1", "Potency": "inactive"}
{"smiles": "Cc1ccc(-n2cc(CNCCCn3cccn3)c(-c3cccc(C)c3)n2)cc1", "Potency": "inconclusive: 29.1 µM [falling, single point]"}
{"smiles": "O=C(/C=C/NCc1cccnc1)c1ccc(-c2ccccc2)cc1", "Potency": "inconclusive: 16.4 µM [activator, partial curve, poor fit]"}
{"smiles": "Cc1cc(O)c(C=O)c2c1C(=O)Oc1c(CO)c(O)c3c(c1O2)C(O)OC3=O", "note": "(stereo not drawn)", "Potency": "inactive"}
{"smiles": "Cc1ccc(C2CC(=O)C(C=NCCN3CCN(CC(=O)Nc4cc(C)cc(C)c4)CC3)=C(O)C2)cc1", "note": "(stereo not drawn)", "Potency": "inconclusive: 20.6 µM [activator, partial curve, poor fit]"}
{"smiles": "CN(Cc1ccccc1)C(=O)CSc1c2c(nc3ccc(Cl)cc13)CCCC2", "Potency": "inconclusive: 29.1 µM [falling, single point]"}
